Test results from article PMC6687534.
Results are given in words; binding and its absence hold for the method and conditions named. Binding seen in cells or lysates may run through a third protein. These calls come from enrichment with a bait or labelling near it, and not all partners need be listed.

Protein sequences, listed by entry. Tags and fused reporters are not part of them.
UniProt Q9UKT9: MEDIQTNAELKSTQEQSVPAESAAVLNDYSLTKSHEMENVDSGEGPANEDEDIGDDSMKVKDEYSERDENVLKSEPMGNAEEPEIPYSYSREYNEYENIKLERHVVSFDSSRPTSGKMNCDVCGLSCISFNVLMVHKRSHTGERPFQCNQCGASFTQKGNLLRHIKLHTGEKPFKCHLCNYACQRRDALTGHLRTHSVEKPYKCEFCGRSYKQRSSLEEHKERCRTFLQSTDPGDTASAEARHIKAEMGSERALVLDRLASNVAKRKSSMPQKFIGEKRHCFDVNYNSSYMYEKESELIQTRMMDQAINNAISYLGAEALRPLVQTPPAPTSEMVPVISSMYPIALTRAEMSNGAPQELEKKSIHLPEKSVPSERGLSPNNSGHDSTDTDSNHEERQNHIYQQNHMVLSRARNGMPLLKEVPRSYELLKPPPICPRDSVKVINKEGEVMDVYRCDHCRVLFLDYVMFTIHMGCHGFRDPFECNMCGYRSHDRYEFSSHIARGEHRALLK
UniProt Q13761: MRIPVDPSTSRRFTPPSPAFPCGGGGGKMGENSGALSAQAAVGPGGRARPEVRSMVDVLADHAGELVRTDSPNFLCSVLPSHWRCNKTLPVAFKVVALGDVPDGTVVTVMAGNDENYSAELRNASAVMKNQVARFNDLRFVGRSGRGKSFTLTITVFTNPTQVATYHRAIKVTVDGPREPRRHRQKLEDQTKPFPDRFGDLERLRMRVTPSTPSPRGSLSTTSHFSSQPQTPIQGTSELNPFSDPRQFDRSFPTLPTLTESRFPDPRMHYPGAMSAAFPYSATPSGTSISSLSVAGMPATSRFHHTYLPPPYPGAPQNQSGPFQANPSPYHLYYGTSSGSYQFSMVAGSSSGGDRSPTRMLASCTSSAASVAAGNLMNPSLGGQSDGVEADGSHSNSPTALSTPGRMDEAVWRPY
UniProt Q13951: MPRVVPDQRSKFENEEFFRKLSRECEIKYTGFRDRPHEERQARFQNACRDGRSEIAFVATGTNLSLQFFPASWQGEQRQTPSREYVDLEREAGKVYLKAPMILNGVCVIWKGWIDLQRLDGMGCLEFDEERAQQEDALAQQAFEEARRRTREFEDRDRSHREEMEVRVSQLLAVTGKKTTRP

What follows are substances tested against FLAG-tagged human IKZF3, stably expressed in myeloma cells (human) (UniProt Q9UKT9) (assay: affinity purification with mass spectrometry; anti-FLAG affinity purification from ARP-1 cells stably expressing FLAG-IKZF1 or FLAG-IKZF3, from nuclear extract (nucleoplasm) or benzonase-extracted detergent-insoluble fraction (DNA-bound); FLAG-peptide eluates, MudPIT; relative to cells infected with an empty virus).

binding, binds:
endogenous RUNX1 of myeloma cells (from UniProt Q01196 1-453)
endogenous RUNX3 of myeloma cells (from UniProt Q13761 1-415)
endogenous CBFβ of ARP-1 cells (from UniProt Q13951 1-182)
